Some results were stated once for a whole list of compounds, not compound by compound.
Target: T1, GST-BIR3 fusion protein
T1 construct: fused on or other part: GST tag fused to the BIR3 domain
Assay: TR-FRET Smac/BIR3 competition binding assay
Conditions: competition with biotinylated Smac (B-Smac) for GST-BIR3, read-out: IC50 (concentration of compound inhibiting 50% of Smac binding)

SMILES | IC50
CN[C@@H](C)C(=O)Nc1cnc(-c2ccccc2)n(CC(=O)N[C@@H]2CCCc3ccccc32)c1=O [Example 29, (S)-2-Methylamino-N-(6-oxo-2-phenyl-1-{[(R)-(1,2,3,4-tetrahydro-naphthalen-1-yl)carbamoyl]-methyl}-1,6-dihydro-pyrimidin-5-yl)-propionamide] | 0.001 to 10 µM
CN[C@@H](C)C(=O)Nc1ncc(-c2ccccc2)n(CC(=O)N[C@@H]2CCCc3ccccc32)c1=O [Example 30, (S)-2-Methylamino-N-(3-oxo-5-phenyl-4-{[(R)-(1,2,3,4-tetrahydro-naphthalen-1-yl)carbamoyl]-methyl}-3,4-dihydro-pyrazin-2-yl)-propionamide] | 0.001 to 10 µM

— patent US8048886B2, “Substituted pyrazine-3-one-derivatives as IAP inhibitors” (Novartis AG, priority 2006, dated 2011)
